According to article PMC8269059, “Glycyrrhizin Derivatives Suppress Cancer Chemoresistance by Inhibiting Progesterone Receptor Membrane Component 1” (Cancers, 2021):
Results are given in words; binding and its absence hold for the method and conditions named. In cells and extracts the contact can be indirect. Binding can be weak; no strength is given.

By UniProt entry, the sequences of proteins in these tests, tags left out. Where a name states a change or a piece, a line headed by the entry shows the natural chain unless it says otherwise. Residues count along the entry.
UniProt O00264, residues 44-195: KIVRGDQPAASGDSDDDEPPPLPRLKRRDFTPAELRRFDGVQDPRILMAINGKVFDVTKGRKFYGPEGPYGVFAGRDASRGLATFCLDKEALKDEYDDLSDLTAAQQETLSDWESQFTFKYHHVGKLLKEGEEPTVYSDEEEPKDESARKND
UniProt P08684: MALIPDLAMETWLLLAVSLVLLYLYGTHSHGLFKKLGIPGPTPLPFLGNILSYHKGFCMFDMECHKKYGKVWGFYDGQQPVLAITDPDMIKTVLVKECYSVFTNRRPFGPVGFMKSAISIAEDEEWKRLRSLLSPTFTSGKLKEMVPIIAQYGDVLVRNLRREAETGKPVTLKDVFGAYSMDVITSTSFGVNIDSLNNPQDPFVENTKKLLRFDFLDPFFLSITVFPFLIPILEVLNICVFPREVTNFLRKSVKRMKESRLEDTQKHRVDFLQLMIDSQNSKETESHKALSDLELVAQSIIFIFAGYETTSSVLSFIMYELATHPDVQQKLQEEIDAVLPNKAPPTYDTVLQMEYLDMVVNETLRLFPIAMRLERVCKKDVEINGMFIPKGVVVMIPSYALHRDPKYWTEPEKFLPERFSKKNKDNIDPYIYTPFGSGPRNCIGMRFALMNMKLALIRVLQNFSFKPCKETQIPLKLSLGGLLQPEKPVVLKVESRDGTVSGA

Molecular target: FLAG-PGRMC1 (a.a. 44-195) (human) (UniProt O00264)
Experiment: co-IP; in vitro binding assay: 1 ug purified CYP3A4 with 10 ug FLAG-PGRMC1 (a.a. 44-195), treated with or without GL or GlucoGL, in 500 uL of 20 mM HEPES-NaOH pH 7.9, 100 mM NaCl, 0.2 mM EDTA, 10% glycerol, 0.1% NP40, 60 min at room temperature; captured on anti-FLAG (M2) agarose, eluted with FLAG peptide; western blotting; both purified

binding: binds
Substance: cytochrome P450 3A4 (CYP3A4) (from UniProt P08684) (enzyme)
